Structures are written as SMILES.

The data set in a line: Sensitivity of electrochemical CO sensors using the protonic ionic liquid as electrolyte. The note with it: CO sensor exposed to 100 ppm of CO in the atmosphere.
Regarding `CCCN.O=[N+]([O-])O` [compound 16, Propylammonium nitrate, reference compound], the Sensitivity is reported as 0.16 nA/ppm cm^2. Next, `CCn1ccnc1.O=[N+]([O-])O` [compound 14, 1-Ethylimidazolium nitrate, reference compound]: 4.68 nA/ppm cm^2; `O=S(=O)(O)O.c1ccncc1` [Example 3]: 23.2 nA/ppm cm^2; `CNCCOC` [Example 12]: 10.29 nA/ppm cm^2. For `CCNCC.O=S(=O)(O)O` [Example 1] the value was 32.2 nA/ppm cm^2. Next, `CNS(=O)(=O)O.COCCN` [Example 11]: 8.53 nA/ppm cm^2.

Compound `CCN1CCCC1` [Example 4] returned a Sensitivity of 18.19 nA/ppm cm^2. In the case of `CCN1CCCC1` [Example 10], the Sensitivity is reported as 9.59 nA/ppm cm^2.

`CCNCC.CNS(=O)(=O)O` [Example 9] had a Sensitivity of 10.01 nA/ppm cm^2. Next, `CCN1CCCC1` [Example 8]: 5.94 nA/ppm cm^2; `COCCNCCOC` [Example 7]: 22.11 nA/ppm cm^2. For `CCN.O=[N+]([O-])O` [compound 15, Ethylammonium nitrate, reference compound] the value was 3.18 nA/ppm cm^2.

Values taken from patent US20230041069A1, “ELECTROLYTE FOR ELECTROCHEMICAL GAS SENSOR AND ELECTROCHEMICAL GAS SENSOR INCLUDING THE SAME” (Samsung Electronics Co., Ltd., priority 2021, published 2023).
